# These are yes or no findings as the source states them, for the method shown. Some binding calls cover weakened binding; strength is not graded here.
# Chains of the proteins cited; added tags and fusions are not shown. Residues count along the entry.
# UniProt Q02224, residues 1-483: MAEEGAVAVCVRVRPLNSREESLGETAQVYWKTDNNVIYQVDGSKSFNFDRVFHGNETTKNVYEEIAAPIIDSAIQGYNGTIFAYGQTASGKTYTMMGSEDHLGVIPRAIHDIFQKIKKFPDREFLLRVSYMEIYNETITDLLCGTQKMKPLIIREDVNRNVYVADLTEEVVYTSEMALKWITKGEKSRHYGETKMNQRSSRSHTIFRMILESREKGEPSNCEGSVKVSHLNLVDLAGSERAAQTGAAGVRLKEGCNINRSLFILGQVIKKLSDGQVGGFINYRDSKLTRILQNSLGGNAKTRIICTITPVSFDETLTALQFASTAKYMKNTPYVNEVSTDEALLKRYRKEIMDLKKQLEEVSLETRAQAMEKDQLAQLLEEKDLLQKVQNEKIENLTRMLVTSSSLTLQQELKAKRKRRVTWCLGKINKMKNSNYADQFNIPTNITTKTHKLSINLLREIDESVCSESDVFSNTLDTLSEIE
# Biological target: human CENP-E483 followed by two tandem mNeonGreen fluorophores (human) (UniProt Q02224)
# Experiment: native gel or EMSA
substance,measurement,value
human CENP-E483 followed by two tandem mNeonGreen fluorophores (from UniProt Q02224 1-483) (domain or fragment),binding,binds weakly

# — publication doi:10.1101/2022.01.21.477187
